According to US20220409617A1, “Drug Formulations and Methods of Treatment for Metabolic Disorders” (The Regents of the University of California, priority 2019, published 2022):

Tested on: mouse embryonic fibroblasts (MEFs)
Assay type: cell-based
Details: 3 h pre-treatment then palmitate 250 μM 3 h, 893 5 μM, myriocin 10 μM, fumonisin B1 30 μM, NAV-2729 12.5 μM, YM201636 800 nM, celastrol 500 nM

SMILES: Nc1ccc(C(=O)Nc2cccc(-c3nc(N4CCOCC4)c4oc5ncccc5c4n3)c2)cn1 [YM201636, reference compound]
- Protection from palmitate-induced mitochondrial fragmentation (aspect ratio, branch length, roundness): partial protection from palmitate-induced mitochondrial fragmentation
